log2 fold change data for 34 targets are collected here from the supplement of paper PMC12819154, “High-throughput peptide-centric local stability assay extends protein–ligand identification to membrane proteins, tissues and bacteria” (Nature Structural & Molecular Biology, 2025).

Chains of the proteins cited; added tags and fusions are not shown. Lines headed by an entry give the natural chain unless they say otherwise; changes in a name come on top.
UniProt Q46898: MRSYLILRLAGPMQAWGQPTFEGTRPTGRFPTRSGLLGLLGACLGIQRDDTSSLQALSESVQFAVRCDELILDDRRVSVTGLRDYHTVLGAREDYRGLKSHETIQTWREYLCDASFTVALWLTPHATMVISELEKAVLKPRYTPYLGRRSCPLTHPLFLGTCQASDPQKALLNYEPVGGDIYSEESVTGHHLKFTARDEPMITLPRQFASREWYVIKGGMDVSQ
UniProt V9HVX0: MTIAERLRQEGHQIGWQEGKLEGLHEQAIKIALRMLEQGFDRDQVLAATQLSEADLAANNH
UniProt Q06065: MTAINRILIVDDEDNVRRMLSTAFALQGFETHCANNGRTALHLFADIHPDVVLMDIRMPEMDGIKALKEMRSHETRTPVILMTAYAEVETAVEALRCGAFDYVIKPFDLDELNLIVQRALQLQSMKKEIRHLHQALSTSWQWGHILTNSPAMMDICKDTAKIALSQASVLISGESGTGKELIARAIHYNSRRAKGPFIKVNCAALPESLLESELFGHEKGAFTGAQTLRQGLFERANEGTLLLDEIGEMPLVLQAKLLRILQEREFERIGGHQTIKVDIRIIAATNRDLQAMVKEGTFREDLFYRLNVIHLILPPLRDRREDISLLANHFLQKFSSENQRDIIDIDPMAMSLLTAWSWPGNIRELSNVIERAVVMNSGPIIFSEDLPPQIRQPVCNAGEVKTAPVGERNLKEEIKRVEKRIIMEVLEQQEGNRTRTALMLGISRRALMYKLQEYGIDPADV
UniProt Q46845: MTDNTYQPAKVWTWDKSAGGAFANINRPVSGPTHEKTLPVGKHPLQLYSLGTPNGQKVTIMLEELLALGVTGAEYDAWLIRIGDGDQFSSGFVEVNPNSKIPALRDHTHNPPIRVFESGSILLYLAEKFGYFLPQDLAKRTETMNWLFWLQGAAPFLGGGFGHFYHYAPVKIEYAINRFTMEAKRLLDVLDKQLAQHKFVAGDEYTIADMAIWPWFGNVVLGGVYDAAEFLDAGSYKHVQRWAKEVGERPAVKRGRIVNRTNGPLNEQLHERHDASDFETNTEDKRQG
UniProt Q46802: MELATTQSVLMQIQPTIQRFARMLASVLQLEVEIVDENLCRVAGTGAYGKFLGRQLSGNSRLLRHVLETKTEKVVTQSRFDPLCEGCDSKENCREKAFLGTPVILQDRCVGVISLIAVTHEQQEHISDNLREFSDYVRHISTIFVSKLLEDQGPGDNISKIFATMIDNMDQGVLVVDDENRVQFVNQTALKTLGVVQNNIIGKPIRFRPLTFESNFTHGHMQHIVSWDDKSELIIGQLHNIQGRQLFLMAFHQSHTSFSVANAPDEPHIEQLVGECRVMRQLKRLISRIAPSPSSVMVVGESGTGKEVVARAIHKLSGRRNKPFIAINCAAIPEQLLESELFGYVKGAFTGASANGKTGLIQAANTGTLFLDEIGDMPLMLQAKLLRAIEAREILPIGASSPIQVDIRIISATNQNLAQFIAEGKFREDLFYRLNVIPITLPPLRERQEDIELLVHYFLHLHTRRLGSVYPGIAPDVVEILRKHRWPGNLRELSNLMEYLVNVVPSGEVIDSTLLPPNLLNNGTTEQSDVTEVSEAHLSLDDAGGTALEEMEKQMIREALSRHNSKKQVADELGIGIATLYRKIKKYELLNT
UniProt Q46925: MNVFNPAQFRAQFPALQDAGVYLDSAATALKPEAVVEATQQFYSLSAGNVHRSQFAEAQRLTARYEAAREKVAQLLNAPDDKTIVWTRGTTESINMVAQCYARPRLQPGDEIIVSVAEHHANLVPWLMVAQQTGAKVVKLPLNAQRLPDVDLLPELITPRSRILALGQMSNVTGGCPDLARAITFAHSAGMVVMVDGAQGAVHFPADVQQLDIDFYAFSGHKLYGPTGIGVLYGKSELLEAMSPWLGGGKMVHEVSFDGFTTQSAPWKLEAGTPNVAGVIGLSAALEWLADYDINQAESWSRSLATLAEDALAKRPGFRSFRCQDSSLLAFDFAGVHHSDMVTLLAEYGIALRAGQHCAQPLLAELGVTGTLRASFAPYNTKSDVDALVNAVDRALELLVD
UniProt Q47150: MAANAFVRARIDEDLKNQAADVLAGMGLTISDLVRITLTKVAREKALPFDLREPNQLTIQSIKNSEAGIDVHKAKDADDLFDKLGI
UniProt Q47274: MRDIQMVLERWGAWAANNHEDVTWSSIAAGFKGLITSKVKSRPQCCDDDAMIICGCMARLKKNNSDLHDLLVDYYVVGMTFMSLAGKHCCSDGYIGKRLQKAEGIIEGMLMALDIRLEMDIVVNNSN
UniProt P77736: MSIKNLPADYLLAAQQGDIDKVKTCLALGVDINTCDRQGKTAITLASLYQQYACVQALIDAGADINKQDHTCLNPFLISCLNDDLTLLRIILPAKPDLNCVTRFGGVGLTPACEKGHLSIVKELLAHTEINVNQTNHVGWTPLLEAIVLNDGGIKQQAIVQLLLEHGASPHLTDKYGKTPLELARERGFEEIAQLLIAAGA
UniProt Q46915: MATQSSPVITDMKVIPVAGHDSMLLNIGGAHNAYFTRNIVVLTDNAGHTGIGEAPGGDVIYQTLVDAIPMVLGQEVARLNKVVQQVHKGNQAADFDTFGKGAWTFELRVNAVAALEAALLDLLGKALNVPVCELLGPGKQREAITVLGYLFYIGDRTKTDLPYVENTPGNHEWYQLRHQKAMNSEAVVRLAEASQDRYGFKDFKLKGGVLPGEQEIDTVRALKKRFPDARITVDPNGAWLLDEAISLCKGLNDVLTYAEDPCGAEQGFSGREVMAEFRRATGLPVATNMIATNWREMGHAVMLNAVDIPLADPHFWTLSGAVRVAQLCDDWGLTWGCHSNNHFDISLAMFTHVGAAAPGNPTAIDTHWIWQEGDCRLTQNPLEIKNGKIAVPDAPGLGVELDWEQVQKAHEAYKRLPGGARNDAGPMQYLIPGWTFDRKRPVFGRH
UniProt Q46808: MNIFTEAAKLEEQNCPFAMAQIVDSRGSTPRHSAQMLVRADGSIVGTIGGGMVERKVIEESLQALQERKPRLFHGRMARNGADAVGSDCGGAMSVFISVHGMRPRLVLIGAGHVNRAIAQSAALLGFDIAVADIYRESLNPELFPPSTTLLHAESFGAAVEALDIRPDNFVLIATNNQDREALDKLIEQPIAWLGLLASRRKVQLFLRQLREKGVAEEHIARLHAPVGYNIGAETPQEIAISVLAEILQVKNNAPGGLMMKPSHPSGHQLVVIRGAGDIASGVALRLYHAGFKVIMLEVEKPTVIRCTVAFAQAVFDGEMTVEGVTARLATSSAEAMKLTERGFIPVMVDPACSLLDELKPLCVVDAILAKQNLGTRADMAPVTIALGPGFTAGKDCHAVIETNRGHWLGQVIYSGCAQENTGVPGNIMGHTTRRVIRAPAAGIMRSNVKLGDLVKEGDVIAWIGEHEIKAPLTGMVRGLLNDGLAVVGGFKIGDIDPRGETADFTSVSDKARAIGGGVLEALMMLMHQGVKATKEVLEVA
UniProt P80668: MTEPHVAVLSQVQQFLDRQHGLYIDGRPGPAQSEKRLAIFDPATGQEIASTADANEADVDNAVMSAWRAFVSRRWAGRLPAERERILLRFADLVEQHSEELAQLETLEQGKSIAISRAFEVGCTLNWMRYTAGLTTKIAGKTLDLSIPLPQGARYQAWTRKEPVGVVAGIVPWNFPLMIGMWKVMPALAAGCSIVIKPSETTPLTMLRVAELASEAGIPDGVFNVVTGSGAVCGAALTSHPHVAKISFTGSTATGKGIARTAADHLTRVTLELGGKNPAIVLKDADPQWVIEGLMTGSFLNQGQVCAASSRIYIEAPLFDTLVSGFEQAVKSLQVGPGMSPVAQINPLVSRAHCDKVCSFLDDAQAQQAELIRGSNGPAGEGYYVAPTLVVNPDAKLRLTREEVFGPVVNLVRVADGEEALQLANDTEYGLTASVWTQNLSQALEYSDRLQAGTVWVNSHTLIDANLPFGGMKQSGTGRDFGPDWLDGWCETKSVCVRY
UniProt P77713: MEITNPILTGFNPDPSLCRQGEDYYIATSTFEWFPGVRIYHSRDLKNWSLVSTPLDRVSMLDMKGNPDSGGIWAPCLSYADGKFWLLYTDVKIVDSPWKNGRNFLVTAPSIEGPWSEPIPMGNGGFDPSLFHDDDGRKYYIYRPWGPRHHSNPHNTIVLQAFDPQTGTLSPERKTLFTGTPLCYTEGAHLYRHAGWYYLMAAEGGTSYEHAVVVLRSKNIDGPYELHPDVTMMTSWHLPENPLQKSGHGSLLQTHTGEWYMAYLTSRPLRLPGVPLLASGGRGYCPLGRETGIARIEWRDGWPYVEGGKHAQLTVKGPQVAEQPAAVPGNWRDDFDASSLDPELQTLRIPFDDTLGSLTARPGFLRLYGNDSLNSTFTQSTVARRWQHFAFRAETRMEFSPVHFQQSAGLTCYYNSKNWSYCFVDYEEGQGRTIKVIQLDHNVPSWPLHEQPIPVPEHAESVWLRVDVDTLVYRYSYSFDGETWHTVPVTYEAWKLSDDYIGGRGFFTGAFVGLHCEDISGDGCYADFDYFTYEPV
UniProt Q47158: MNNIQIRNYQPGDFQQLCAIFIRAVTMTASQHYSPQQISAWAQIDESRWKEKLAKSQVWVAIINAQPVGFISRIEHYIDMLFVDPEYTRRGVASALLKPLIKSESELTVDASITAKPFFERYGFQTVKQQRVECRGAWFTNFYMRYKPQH
UniProt Q46868: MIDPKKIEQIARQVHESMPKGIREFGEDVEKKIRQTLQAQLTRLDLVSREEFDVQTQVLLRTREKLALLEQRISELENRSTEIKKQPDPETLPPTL
UniProt Q46798: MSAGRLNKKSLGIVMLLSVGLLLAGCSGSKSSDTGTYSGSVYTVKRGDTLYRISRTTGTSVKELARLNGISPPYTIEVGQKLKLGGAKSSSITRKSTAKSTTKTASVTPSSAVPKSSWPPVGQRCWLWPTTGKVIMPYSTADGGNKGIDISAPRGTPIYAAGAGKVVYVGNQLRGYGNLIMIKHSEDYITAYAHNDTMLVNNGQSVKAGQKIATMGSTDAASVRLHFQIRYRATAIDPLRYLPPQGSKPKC
UniProt P77783: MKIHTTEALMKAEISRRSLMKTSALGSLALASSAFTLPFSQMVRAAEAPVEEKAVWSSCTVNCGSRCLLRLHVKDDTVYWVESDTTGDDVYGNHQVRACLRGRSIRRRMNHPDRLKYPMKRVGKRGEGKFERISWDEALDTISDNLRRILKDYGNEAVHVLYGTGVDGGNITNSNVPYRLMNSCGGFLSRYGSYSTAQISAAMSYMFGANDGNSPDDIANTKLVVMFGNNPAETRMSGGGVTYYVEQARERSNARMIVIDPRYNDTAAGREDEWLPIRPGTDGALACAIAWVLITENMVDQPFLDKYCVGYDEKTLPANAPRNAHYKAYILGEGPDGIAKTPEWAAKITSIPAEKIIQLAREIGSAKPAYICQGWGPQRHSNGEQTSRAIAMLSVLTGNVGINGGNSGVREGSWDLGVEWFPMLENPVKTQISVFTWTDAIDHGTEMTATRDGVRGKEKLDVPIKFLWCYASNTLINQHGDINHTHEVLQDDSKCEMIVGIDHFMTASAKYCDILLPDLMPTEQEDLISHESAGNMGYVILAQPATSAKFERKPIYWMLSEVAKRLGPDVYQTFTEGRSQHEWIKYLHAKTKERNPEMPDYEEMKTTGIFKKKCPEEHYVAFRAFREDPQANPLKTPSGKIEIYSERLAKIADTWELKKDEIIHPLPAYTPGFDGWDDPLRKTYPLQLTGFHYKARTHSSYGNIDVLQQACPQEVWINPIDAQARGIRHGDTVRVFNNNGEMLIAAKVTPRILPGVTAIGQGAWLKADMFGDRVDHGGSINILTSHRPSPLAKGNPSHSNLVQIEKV
UniProt Q47146: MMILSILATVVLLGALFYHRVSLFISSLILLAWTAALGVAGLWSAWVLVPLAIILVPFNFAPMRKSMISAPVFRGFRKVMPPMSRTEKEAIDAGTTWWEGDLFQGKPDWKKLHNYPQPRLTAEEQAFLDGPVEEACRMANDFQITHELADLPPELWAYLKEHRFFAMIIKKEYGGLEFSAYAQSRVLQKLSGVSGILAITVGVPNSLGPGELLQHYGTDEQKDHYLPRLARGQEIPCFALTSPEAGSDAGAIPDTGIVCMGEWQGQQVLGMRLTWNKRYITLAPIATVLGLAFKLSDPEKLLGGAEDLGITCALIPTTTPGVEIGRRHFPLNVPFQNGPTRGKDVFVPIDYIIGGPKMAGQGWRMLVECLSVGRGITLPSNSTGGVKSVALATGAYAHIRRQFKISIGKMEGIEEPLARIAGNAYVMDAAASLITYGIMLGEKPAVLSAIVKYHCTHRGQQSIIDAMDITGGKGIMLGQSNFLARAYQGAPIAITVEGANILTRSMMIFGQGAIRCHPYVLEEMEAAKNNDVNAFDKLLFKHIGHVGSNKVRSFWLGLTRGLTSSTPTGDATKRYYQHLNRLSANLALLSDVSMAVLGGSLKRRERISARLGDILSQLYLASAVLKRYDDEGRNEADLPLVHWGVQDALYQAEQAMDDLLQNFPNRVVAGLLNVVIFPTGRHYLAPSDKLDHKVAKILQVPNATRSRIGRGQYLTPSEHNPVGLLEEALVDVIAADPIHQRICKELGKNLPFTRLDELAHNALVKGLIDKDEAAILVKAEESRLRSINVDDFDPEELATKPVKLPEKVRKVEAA

The other results are listed elsewhere or left out. Most values lie at the level of the controls, where differences are scatter.

Compound in the experiment: CC1(C)S[C@@H]2[C@H](NC(=O)[C@H](N)c3ccccc3)C(=O)N2[C@H]1C(=O)O [ampicillin]
Kind of experiment: log2 fold change of tryptic peptide abundance, ligand vs vehicle (limited proteolysis) (log2 ratio); higher = more trypsin-susceptible (destabilized). The following applies: ligand concentration: 10 uM; sample: E. coli crude lysate.
With “UniProt Q47679 (peptide sequence: IDAELSMAALR, peptide start residue: 228)”, the log2 fold change came out at 0.241.
In the case of “UniProt Q46898 (peptide sequence: EDYRGLK, peptide start residue: 93)”, the log2 fold change was -0.056.
To “UniProt P77712 (peptide sequence: GYHLDVYQHVNNAR, peptide start residue: 9)” belongs 0.0466.
For the target “UniProt P77700 (peptide sequence: AAEELGLTTSAISYTIKR, peptide start residue: 25)”, the log2 fold change came out at 0.473.
The same measure for “UniProt V9HVX0 (peptide sequence: LEGLHEQAIK, peptide start residue: 21)”: -1.1; for “UniProt Q06065 (peptide sequence: RIIMEVLEQQEGNR, peptide start residue: 420)”: -0.384.
As for “UniProt Q46919 (peptide sequence: MHDLLDNK, peptide start residue: 59)”, the log2 fold change amounted to 0.459.
“UniProt Q46845 (peptide sequence: TNGPLNEQLHER, peptide start residue: 261)”: the log2 fold change turned out to be 0.2.
The same measure for “UniProt P77690 (peptide sequence: APQAEVLTPGYK, peptide start residue: 230)”: 0.0894.
Take “UniProt Q2M7X4 (peptide sequence: EAIVAMER, peptide start residue: 72)”: the log2 fold change is -0.167.
The same measure for “UniProt Q46802 (peptide sequence: HISTIFVSK, peptide start residue: 139)”: -0.141; for “UniProt P77743 (peptide sequence: LLTPQQALEK, peptide start residue: 494)”: 0.734; for “UniProt Q46925 (peptide sequence: VAQLLNAPDDKTIVWTR, peptide start residue: 72)”: 0.112.
The same measure for “UniProt P77744 (peptide sequence: SLMPAVISR, peptide start residue: 108)”: -0.405; for “UniProt Q47150 (peptide sequence: EKALPFDLR, peptide start residue: 44)”: -0.131; for “UniProt Q47274 (peptide sequence: DIQMVLER, peptide start residue: 3)”: -0.384.
To “UniProt P77766 (peptide sequence: AQIPGALEGAQR, peptide start residue: 121)” belongs -0.242.
On to “UniProt P77736 (peptide sequence: IILPAKPDLNCVTR, peptide start residue: 90)”, for which the log2 fold change came to 0.258.
The same measure for “UniProt Q46915 (peptide sequence: LKGGVLPGEQEIDTVR, peptide start residue: 205)”: -0.211; for “UniProt P77739 (peptide sequence: YAGHDFFVK, peptide start residue: 37)”: 0.537; for “UniProt Q46808 (peptide sequence: ADGSIVGTIGGGMVERK, peptide start residue: 40)”: -0.286.
The same measure for “UniProt P80668 (peptide sequence: ISFTGSTATGK, peptide start residue: 246)”: -0.412; for “UniProt P77695 (peptide sequence: AEADISEYITK, peptide start residue: 10)”: 0.148.
On to “UniProt Q06067 (peptide sequence: IFDPFFTTK, peptide start residue: 552)”, for which the log2 fold change was -0.127.
To “UniProt Q46906 (peptide sequence: LVTEADGIISTK, peptide start residue: 79)” belongs -0.146; to “UniProt Q46888 (peptide sequence: IGAEPGLGSTVK, peptide start residue: 167)”, 0.0662.
As to “UniProt Q46811 (peptide sequence: LDYDSALNIR, peptide start residue: 514)”, the log2 fold change is -0.731.
To “UniProt P77713 (peptide sequence: PLRLPGVPLLASGGR, peptide start residue: 268)” belongs 0.608; to “UniProt Q47158 (peptide sequence: GAWFTNFYMR, peptide start residue: 136)”, -0.274; to “UniProt Q46904 (peptide sequence: EPQNLFPLYHHNVER, peptide start residue: 334)”, 0.192.
To “UniProt Q46868 (peptide sequence: KQPDPETLPPTL, peptide start residue: 85)” belongs -0.129.
The same measure for “UniProt Q46798 (peptide sequence: RGDTLYR, peptide start residue: 46)”: 0.23; for “UniProt P77783 (peptide sequence: EKLDVPIK, peptide start residue: 458)”: 0.313.
Consider “UniProt Q47146 (peptide sequence: SVALATGAYAHIR, peptide start residue: 388)”, for which the log2 fold change is 0.744.
